Test [1] concerns the target GammaD-crystallin W130E. In words: SEC.
Test [2] addresses GammaD-crystallin W130E. In words: SEC. This is another data set of the same source.

Read-outs that look alike come from different tables or passages of the source. No constants are given. Whether binding was seen depends on the method and setting. For some assays here: Binding calls can cover weak binding; strength is not graded here.

B1: HSPB5 WT (full length) (protein, UniProt P02511 1-175)
chain: MDIAIHHPWIRRPFFPFHSPSRLFDQFFGEHLLESDLFPTSTSLSPFYLRPPSFLRAPSWFDTGLSEMRLEKDRFSVNLDVKHFSPEELKVKVLGDVIEVHGKHEERQDEHGFISREFHRKYRIPADVDPLTITSSLSSDGVLTVNGPRKQVSGPERTIPITREEKPAVTAAPKK
Take B1: the figures for the binding result in test [1] and in test [2] were “no binding (only at pH 7.5)” and “binds”, respectively.

Values taken from publication doi:10.1101/2022.05.30.493970.
